Source: paper doi:10.1101/2025.10.18.683247

Biological target: T1, FLAG-AGO1^WT (Arabidopsis ARGONAUTE1, wild type, N-terminally FLAG-tagged) (Arabidopsis thaliana) (UniProt O04379)
T1 sequence: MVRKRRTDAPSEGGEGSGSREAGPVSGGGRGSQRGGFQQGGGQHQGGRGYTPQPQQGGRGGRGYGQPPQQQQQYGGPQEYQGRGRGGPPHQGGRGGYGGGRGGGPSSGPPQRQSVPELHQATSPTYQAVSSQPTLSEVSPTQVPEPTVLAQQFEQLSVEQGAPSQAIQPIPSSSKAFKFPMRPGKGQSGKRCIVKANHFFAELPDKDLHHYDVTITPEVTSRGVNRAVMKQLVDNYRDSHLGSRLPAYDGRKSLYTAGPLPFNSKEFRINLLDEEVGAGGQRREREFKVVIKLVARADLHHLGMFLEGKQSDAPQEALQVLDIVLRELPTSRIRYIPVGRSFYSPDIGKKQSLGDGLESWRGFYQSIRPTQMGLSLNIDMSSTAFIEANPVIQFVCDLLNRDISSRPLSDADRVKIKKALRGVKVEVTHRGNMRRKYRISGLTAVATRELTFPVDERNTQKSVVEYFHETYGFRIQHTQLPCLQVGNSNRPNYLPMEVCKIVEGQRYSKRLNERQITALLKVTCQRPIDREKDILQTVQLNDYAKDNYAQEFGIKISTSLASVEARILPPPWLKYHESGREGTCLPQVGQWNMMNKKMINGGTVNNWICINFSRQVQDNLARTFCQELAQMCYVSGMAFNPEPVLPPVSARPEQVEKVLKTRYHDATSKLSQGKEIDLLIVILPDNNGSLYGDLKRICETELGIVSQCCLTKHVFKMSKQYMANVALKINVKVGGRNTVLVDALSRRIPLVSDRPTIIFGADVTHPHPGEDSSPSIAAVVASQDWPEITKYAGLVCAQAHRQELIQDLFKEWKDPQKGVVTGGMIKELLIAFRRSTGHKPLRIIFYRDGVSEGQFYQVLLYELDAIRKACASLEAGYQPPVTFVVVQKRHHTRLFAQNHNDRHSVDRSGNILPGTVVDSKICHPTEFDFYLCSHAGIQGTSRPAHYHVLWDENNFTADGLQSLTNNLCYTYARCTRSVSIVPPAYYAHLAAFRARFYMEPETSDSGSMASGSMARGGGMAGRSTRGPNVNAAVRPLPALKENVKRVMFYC
Test: affinity purification with mass spectrometry

B1: SGS3 (SUPPRESSOR OF GENE … 3) (protein, UniProt Q9LDX1 1-625)
chain: MSSRAGPMSKEKNVQGGYRPEVEQLVQGLAGTRLASSQDDGGEWEVISKKNKNKPGNTSGKTWVSQNSNPPRAWGGQQQGRGSNVSGRGNNVSGRGNGNGRGIQANISGRGRALSRKYDNNFVAPPPVSRPPLEGGWNWQARGGSAQHTAVQEFPDVEDDVDNASEEENDSDALDDSDDDLASDDYDSDVSQKSHGSRKQNKWFKKFFGSLDSLSIEQINEPQRQWHCPACQNGPGAIDWYNLHPLLAHARTKGARRVKLHRELAEVLEKDLQMRGASVIPCGEIYGQWKGLGEDEKDYEIVWPPMVIIMNTRLDKDDNDKWLGMGNQELLEYFDKYEALRARHSYGPQGHRGMSVLMFESSATGYLEAERLHRELAEMGLDRIAWGQKRSMFSGGVRQLYGFLATKQDLDIFNQHSQGKTRLKFELKSYQEMVVKELRQISEDNQQLNYFKNKLSKQNKHAKVLEESLEIMSEKLRRTAEDNRIVRQRTKMQHEQNREEMDAHDRFFMDSIKQIHERRDAKEENFEMLQQQERAKVVGQQQQNINPSSNDDCRKRAEEVSSFIEFQEKEMEEFVEEREMLIKDQEKKMEDMKKRHHEEIFDLEKEFDEALEQLMYKHGLHNEDD
- binding: binds

Results are given in words; binding and its absence hold for the method and conditions named. Binding seen in cells or lysates may run through a third protein. Here binding means that the protein was enriched with, or labelled near, the bait; the list need not be complete. Where a sequence is shown, tags or fusion partners need not be part of it.
